Measurements as given in publication PMC7862700.
This is a selection; strong and weak results do not stand in their true shares. At the low end of the ranking the order means little.

Amino acid sequences for entries named in this document (tags omitted). A change or cut given only in a name is not applied to a line headed by its entry.
UniProt Q9Y603: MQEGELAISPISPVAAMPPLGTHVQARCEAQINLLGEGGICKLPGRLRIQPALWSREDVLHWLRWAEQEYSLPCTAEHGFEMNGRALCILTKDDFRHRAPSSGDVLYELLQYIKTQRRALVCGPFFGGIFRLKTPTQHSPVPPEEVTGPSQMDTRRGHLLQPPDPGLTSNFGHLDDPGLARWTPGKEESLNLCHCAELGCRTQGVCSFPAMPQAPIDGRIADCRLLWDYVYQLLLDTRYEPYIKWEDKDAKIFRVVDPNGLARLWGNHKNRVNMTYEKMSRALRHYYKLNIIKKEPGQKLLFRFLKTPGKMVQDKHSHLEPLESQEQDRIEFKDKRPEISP
UniProt P41212: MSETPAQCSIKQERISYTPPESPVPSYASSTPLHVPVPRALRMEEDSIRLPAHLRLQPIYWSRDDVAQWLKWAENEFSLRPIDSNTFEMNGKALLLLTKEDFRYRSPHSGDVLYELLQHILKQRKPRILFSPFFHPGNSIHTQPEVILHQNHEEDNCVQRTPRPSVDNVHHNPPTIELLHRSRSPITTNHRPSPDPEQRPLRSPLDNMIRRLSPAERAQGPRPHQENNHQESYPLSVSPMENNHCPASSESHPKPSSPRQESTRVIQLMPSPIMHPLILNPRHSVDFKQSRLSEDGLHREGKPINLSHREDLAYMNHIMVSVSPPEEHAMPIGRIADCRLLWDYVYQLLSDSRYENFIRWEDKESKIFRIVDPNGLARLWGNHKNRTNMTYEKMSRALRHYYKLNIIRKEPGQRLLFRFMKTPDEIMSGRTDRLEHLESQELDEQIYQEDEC

Legend:
Experiment in all cases: DAPPL (digital affinity profiling via proximity ligation, sequencing)
Details in all cases: 10 mM Tris-HCl pH 7.5, 50 mM NaCl, 1 mM DTT, 4% glycerol, room temperature, 30 min; GST-TFs on glutathione beads, 16-mer random dsDNA library, 0.1% …; high values mean tight binding; double strand, one strand shown; scale: fold enrichment (6-mer frequency, TF over GST control)
ELF3 = target: T1, ELF3 (UniProt P78545)
T1 sequence: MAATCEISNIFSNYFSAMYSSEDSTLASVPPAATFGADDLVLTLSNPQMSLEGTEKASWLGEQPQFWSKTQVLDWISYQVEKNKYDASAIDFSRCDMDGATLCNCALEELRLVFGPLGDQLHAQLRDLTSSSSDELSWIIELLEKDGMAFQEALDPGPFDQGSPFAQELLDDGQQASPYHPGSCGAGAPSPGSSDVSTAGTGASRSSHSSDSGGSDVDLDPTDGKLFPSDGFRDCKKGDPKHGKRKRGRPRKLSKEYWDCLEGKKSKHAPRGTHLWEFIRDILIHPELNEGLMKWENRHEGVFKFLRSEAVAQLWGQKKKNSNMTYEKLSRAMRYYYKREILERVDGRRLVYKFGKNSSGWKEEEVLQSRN

ETV7 = ETV7 (UniProt Q9Y603)
ETV6 = ETV6 (UniProt P41212)

| Sequence | binding signal (ELF3) | binding signal (ETV7) | binding signal (ETV6) |
| --- | --- | --- | --- |
| CTGGTG | 1.09 | 1.04 | 1.03 |
| TCGAGT | 0.907 | 0.865 | 0.885 |
| CTGAGG | 0.779 | 0.918 | 0.791 |
| GAGAAA | 0.663 | 0.792 | 0.744 |
| TGCAGA | 0.947 | 0.983 | 0.983 |
| ACAGAA | 0.929 | 0.996 | 0.904 |
| TTGGCG | 0.889 | 0.949 | 0.969 |
| GATAGT | 0.794 | 0.869 | 0.873 |
| CATAGA | 0.892 | 0.95 | 0.933 |
| AGCACG | 0.894 | 0.929 | 0.866 |
| CCCTGA | 0.964 | 0.981 | 1.05 |
| TAAGTC | 0.936 | 0.962 | 0.91 |
| GCATTA | 0.908 | 0.845 | 0.881 |
| CATCCA | 0.994 | 0.899 | 0.91 |
| CCACGT | 0.919 | 1.06 | 0.935 |
| GAGCTC | 0.954 | 0.837 | 0.909 |
| TTAGCC | 0.874 | 0.942 | 0.939 |
| CACTCA | 1.17 | 1.21 | 1.14 |
| CATAAA | 1.08 | 0.981 | 0.983 |
| GACTTA | 0.912 | 0.942 | 0.876 |
| GGAATG | 0.954 | 0.839 | 0.828 |
| GTGATG | 0.934 | 0.881 | 0.839 |
| GTGGCA | 0.863 | 0.984 | 1.05 |
| AAAGGC | 0.875 | 1.03 | 0.992 |
| GGATCT | 0.932 | 1.07 | 0.917 |
| GATCGA | 0.82 | 0.822 | 0.87 |
| CAGATA | 0.867 | 0.909 | 0.824 |
| GTTGGT | 0.872 | 1.02 | 0.929 |
| CTCGGG | 0.748 | 0.985 | 0.958 |
| GCCATT | 0.979 | 0.962 | 0.947 |

A few values from above.
Value for CACTCA under binding signal (ELF3): 1.17
Value for CATAAA under binding signal (ETV7): 0.981
